These are yes or no findings as the source states them, for the method shown. Some results given as binding are weak or reduced against the parent protein; the word gives no strength.

The chains behind the UniProt entries cited, without tags or fusion partners.
UniProt Q06547: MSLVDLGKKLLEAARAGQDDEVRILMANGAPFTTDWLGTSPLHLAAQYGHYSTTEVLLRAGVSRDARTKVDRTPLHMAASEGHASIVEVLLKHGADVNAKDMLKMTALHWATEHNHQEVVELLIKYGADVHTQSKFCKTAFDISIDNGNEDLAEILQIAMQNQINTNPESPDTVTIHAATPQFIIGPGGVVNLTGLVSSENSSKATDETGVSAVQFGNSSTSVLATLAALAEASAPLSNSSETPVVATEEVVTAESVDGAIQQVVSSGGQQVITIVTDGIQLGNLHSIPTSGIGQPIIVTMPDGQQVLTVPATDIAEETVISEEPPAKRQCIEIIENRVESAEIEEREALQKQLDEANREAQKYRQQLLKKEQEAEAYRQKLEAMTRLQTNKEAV

This experiment deals with T1, GABPα (UniProt Q06546).
T1 sequence: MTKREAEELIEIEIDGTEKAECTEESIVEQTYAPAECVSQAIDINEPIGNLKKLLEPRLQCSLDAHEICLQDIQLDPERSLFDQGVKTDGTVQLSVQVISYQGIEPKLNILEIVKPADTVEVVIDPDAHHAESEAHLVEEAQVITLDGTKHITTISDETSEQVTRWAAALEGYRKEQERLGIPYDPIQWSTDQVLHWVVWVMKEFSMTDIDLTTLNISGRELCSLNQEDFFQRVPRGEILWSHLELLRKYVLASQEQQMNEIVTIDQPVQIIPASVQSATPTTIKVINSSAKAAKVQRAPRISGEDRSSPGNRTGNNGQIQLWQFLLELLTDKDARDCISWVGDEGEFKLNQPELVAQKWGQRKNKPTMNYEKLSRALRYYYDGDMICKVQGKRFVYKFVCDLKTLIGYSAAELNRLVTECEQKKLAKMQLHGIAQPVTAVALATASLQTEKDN
Kind of experiment: native gel or EMSA; in vitro translated GABPα, β and γ mixed with the 32P-labelled −51 ETS DNA probe; the protein complexes are seen on the DNA; binding buffer 2 mM HEPES-NaOH pH 7.9, 2% glycerol, 0.01 mM EDTA, 0.25 mM DTT, 5 mM KCl, 0.1 mg/ml BSA, poly dI-dC; 40 min at 4°C; 4% native polyacrylamide gel, 0.5× TBE; supershift with anti-GABP antibodies. In general terms: In EMSA bound probe runs differently from free probe, usually more slowly.

Take GABPβ (from UniProt Q06547 1-395): the binding entry is “binds”.
